# Out of some 320,000 compounds screened, about 22,000 (6.9%) were called active. The inconclusive results got no clear call from the source; some entries with a clear call stand among them for comparison. Calls come from the whole dose curve; as a rule, active = well fitted inhibition curve with a large enough effect; inconclusive = small, poorly fitted or top-dose-only effect, or another doubt; inactive = no such curve, though single readings can be large or run the other way. Where the call is inconclusive, the potency comes from a doubtful curve fit.
# Experiment: Primary qHTS for delayed death inhibitors of the malarial parasite plastid, 96 hour incubation
# Conditions: P. falciparum luciferase reporter growth; series mostly up to 28.7 µM; activity change, negative = inhibition: at the top concentration
# Summary of the method: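 Luminescence readout: decreased luciferase signal marks inhibited growth of reporter-expressing P. falciparum in infected red cells (2% hematocrit, 0.05% parasitemia final), exposed to compound two generations (96 h, 37 C, 5% CO2).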
# % is set by controls: 0 for no effect and ±100 for the full control effect; potency is the fitted concentration of half-maximal effect.
Compound,Potency,"activity change, negative = inhibition"
Cc1ccc(Cl)cc1N(Cc1ccc(C(=O)NCc2cccnc2)cc1)S(=O)(=O)c1ccccc1,active: 13.1 µM,
Cc1c(C(=O)N2CCCc3ccccc32)oc2ccccc12,"inconclusive: 4.65 µM [inhibitor, partial curve, poor fit]",
CCCc1ccc(-c2cc(NC(=O)CSc3n[nH]c(N)n3)n(-c3ccccc3)n2)cc1,,inactive: 19.7%
COC(=O)[C@@H]1C[C@]2(OC(=O)c3ccccc3)C=CC(=O)C[C@@H]2N1C(=O)OCc1ccccc1,"inconclusive: 18.5 µM [inhibitor, single point]",
O=C(CSc1nc2ccccc2c(=O)[nH]1)c1cccs1,"inconclusive: 0.0522 µM [inhibitor, full curve, poor fit]",
COC(=O)[C@H](C)NC(=O)NC1CCCc2ccccc21 (stereo partly specified),"inconclusive: 2.62 µM [inhibitor, full curve]",
O=c1cc(-c2ccc(O)c(O)c2)oc2cc(O)c(C3OC(CO)C(O)C(O)C3O)c(O)c12 (stereo unspecified),,inactive: 42.3%
Cn1c(-c2ccc(C=O)s2)nc2ccccc21,"inconclusive: 11.7 µM [inhibitor, partial curve, poor fit]",
O=C(CSc1nc2ccccc2s1)NCCCN1CCOCC1,,inactive: -0.743%
Cc1cc(C(=O)O)ccc1-c1ccc(/C=C2\NC(=O)N(Cc3ccc(F)cc3)C2=O)o1,"inconclusive: 13.1 µM [inhibitor, partial curve]",
O=C(Nc1ccc(Cl)c(S(=O)(=O)N2CCCCC2)c1)c1cnccn1,"inconclusive: 18.5 µM [inhibitor, single point]",
O=C(/C=C/c1ccc([N+](=O)[O-])cc1)N1CCN(c2ccccc2F)CC1,,inactive: 20.7%
COc1cc(C(C)=O)ccc1OCC(=O)Nc1ccccc1N1CCCC1,active: 10.4 µM,
O=Nc1c(O)n(Cc2cccc(C(F)(F)F)c2)c2ccccc12,,inactive: -29%
O=C(CCn1c(=S)oc2ccccc21)NC1CCCCCCC1,,inactive: 8.71%
CC(=O)c1ccc(NC(=O)CCNC(=O)c2ccccc2Cl)cc1,,inactive: 2.92%
CC1=C(C(=O)OC(C)C)C(c2ccc(C)o2)C(C(=O)OC(C)C)=C(C)N1,"inconclusive: 10.4 µM [inhibitor, partial curve, poor fit]",
O=C(Cn1c(=O)n(-c2ccccc2)c(=O)c2oc3ccccc3c21)Nc1ccccc1,"inconclusive: 18.5 µM [inhibitor, single point]",
COc1ccc(NC(=O)C2CCCN(S(=O)(=O)c3ccc4c(c3)CCCN4C(C)=O)C2)cc1 (stereo unspecified),,inactive: -21.7%
Cn1c(N)c(S(=O)(=O)N2CCN(Cc3ccccc3)CC2)c(=O)n(C)c1=O,,inactive: 0.233%
CCn1c(C(O)c2cc(OC)c(OC)c(OC)c2)nc2ccccc21 (stereo unspecified),"inconclusive: 18.5 µM [inhibitor, single point]",
COc1ccc(-c2[nH]ncc2/C=C(\C#N)C(=O)NC2CC2)cc1,"inconclusive: 18.5 µM [inhibitor, single point]",
Cc1ccc(C)c(NC(=O)NNC(=O)c2ccc3ccccc3c2O)c1,"inconclusive: 18.5 µM [inhibitor, single point]",
Cc1ccc(C)c(NC(=O)CN(C)C(=O)[C@@H](NC(=O)c2ccc(C(C)(C)C)cc2)C(C)C)c1,"inconclusive: 18.5 µM [inhibitor, single point]",

Compound,Potency,"activity change, negative = inhibition"
COC(=O)c1ccccc1NC(=O)c1cnn2c(C)cc(C)nc12,"inconclusive: 18.5 µM [inhibitor, single point]",
O=c1ccc(N=Nc2ccccc2)ccc1O,active: 13.1 µM,
COCC(C)NC(=O)c1cc(-c2ccc(OC)c(OC)c2)on1 (stereo unspecified),"inconclusive: 11.7 µM [inhibitor, single point]",
CCOC(=O)c1cccc(C2=CC(=O)C[C@H](c3ccc(Cl)cc3)C2)c1,"inconclusive: 18.5 µM [inhibitor, single point]",
c1ccc(C2[C@H]3CN(CC4CCCCC4)[C@H](c4ccccc4)C34CC2(c2cccnc2)C4)cc1 (stereo partly specified),"inconclusive: 4.15 µM [inhibitor, partial curve, poor fit]",
Oc1ccc(Cl)cc1CNCC1CCCCC1,active: 11.7 µM,
O=C(Nc1ccc(CN2CCCCC2)cc1)Nc1ccc(Br)cc1Cl,,inactive: 12.8%
COc1ccc(NC(=O)Cn2cc(C(=O)c3ccco3)c3ccccc32)cc1,,inactive: -6.44%
Cc1ccc(/C=C/C(O)=C2/C(=O)N(C)C3(C)CC2c2ccccc2O3)cc1 (stereo unspecified),,inactive: 11.8%
OC(COCc1ccc(Cl)cc1)CN1CCN(c2ccccn2)CC1 (stereo unspecified),,inactive: 32.3%
Cc1cccc(C(=O)N2CCCC(c3nc(-c4ccc(F)cc4)no3)C2)c1 (stereo unspecified),"inconclusive: 18.5 µM [inhibitor, single point]",
O=C(NCc1ccco1)C(c1ccncc1)N(C(=O)Cc1cccs1)c1ccccc1 (stereo unspecified),,inactive: 8.67%
CCCn1c(=O)c2c(C(=O)OCC)cc(-c3ccco3)nc2n(CCC)c1=O,active: 1.47 µM,
O=C(NCc1ccccc1Cl)c1ccc2ccccc2n1,,inactive: 41.9%
Cc1ccc(S(=O)(=O)N(C)c2nc3ccccc3n3c(C(C)C)nnc23)cc1,active: 11.7 µM,
NC(N)=N/N=C/c1cn(-c2ccccc2)nc1-c1cccs1,active: 0.522 µM,
N#CCCN(C(=O)COC(=O)CCc1nc2ccccc2c(=O)[nH]1)c1ccccc1F,"inconclusive: 16.5 µM [inhibitor, single point]",
COc1ccccc1CNC(=O)c1cc(S(=O)(=O)N2CCOCC2)cn1C,"inconclusive: 18.5 µM [inhibitor, single point]",
COC(=O)C1=C(c2ccc(OCc3ccccc3)cc2)C[C@@H]2CC[C@H]1N2C(=O)NCc1cccc(C(F)(F)F)c1,active: 1.85 µM,
CC(C)CC(NC(=O)c1ccco1)C(=O)Nc1ccc2c(c1)OCCO2 (stereo unspecified),"inconclusive: 18.5 µM [inhibitor, single point]",
O=S(=O)(Cc1ccccc1)Cc1cnc(Cl)s1,,inactive: 0%
N#CCCSc1nc(N2CCOCC2)c2c(c1C#N)CCCC2,,inactive: -7.47% [at 5.75 µM]
Cc1cc(OCc2cccc(Cl)c2)c(C)cc1CN1CCOCC1,"inconclusive: 18.5 µM [inhibitor, single point]",
CC(=O)N1CCC(O)(c2cccc(C(F)(F)F)c2)CC1,,inactive: -6.57%

# Entries of single compounds, quoted from the list.
# CC(=O)N1CCC(O)(c2cccc(C(F)(F)F)c2)CC1 is listed as activity change, negative = inhibition: inactive: -6.57%
# COC(=O)[C@@H]1C[C@]2(OC(=O)c3ccccc3)C=CC(=O)C[C@@H]2N1C(=O)OCc1ccccc1 is listed as Potency: inconclusive: 18.5 µM [inhibitor, single point]
# O=c1ccc(N=Nc2ccccc2)ccc1O is listed as Potency: active: 13.1 µM

# (continued)

Compound,Potency,"activity change, negative = inhibition"
CC(C)(C)OC(=O)N1CCC(NC(=O)c2[nH]cnc2C(=O)Nc2ccccc2)CC1,"inconclusive: 6.57 µM [inhibitor, partial curve]",
O=C1Nc2ccc(Cl)cc2C12Nc1ccccc1-c1nnc(SCc3ccccc3F)nc1O2 (stereo unspecified),,inactive: -14.3%
CCCn1c(SCC(=O)NC2CCCC2)nnc1-c1cccnc1,,inactive: -64.4%
O=c1[nH]sc2ccccc12,,inactive: -5.84%
CCCCCOC(=O)Nc1ccc(S(=O)(=O)Nc2cccc([N+](=O)[O-])c2)cc1,"inconclusive: 14.7 µM [inhibitor, single point]",
O=C(O)CCCN1C(=O)c2cccc3cccc(c23)C1=O,"inconclusive: 16.5 µM [inhibitor, partial curve, poor fit]",
CCC(C)[C@H](NC(=O)N1CC(=O)Nc2ccccc21)C(=O)NC(C)CCc1ccccc1 (stereo partly specified),"inconclusive: 14.7 µM [inhibitor, partial curve, poor fit]",
O=C(O)CSc1nnc(-c2cc3ccccc3o2)n1-c1ccccc1,"inconclusive: 0.465 µM [inhibitor, partial curve, poor fit]",
O=C1CCC([N+](=O)[O-])C(c2ccc(Cl)c([N+](=O)[O-])c2)N1 (stereo unspecified),"inconclusive: 11.7 µM [inhibitor, single point]",
CC1CCN(S(=O)(=O)N2CCC(C(=O)O)CC2)CC1,"inconclusive: 8.28 µM [inhibitor, partial curve, poor fit]",
CCOc1ccc2cc(C#N)c(SCC(=O)OC)nc2c1,"inconclusive: 5.22 µM [inhibitor, partial curve, poor fit]",
CCN(CC(=O)Nc1ccc(NC(C)=O)cc1)C(=O)c1cccc(S(=O)(=O)N2CCc3ccccc3C2)c1,"inconclusive: 6.57 µM [inhibitor, partial curve]",
COc1cccc(C(=O)NC(=S)Nc2ccc3oc(=O)ccc3c2)c1,,inactive: 10.7%
CC(C)CN(C(=O)COC(=O)c1nc(Cl)ccc1Cl)c1c(N)n(Cc2ccccc2)c(=O)[nH]c1=O,,inactive: -16.6%
COc1ccc(-c2cc(N)n(S(=O)(=O)c3c(F)c(F)c(F)c(F)c3F)n2)cc1OC,"inconclusive: 0.0037 µM [inhibitor, full curve, poor fit]",
Cc1ccc(NC(=O)c2cc(S(=O)(=O)N3CCOCC3)c(Br)s2)cc1,"inconclusive: 18.5 µM [inhibitor, single point]",
CN1CCN(C(=O)c2cc3nc(-c4ccc(F)cc4)cc(C(F)(F)F)n3n2)CC1,"inconclusive: 6.57 µM [inhibitor, partial curve, poor fit]",
CC(=O)OC(C(=O)NCc1ccco1)c1ccncc1 (stereo unspecified),,inactive: -11.9%
COc1cc(/C=C2\SC(=S)N(NC(=O)c3ccc(O)c(OC)c3)C2=O)ccc1O,,inactive: 33.5%
Cc1cccc(Nc2cnn(C34CC5CC(CC(CC(=O)O)(C5)C3)C4)c(=O)c2Cl)c1,"inconclusive: 20.8 µM [inhibitor, single point]",
CC(=O)Nc1ccc(C(C#N)c2ccccc2)cc1 (stereo unspecified),,inactive: -9.09%
CCn1c(=O)c(NC(=O)c2ccccc2)c2n(c1=S)CCCCC2,"inconclusive: 0.465 µM [inhibitor, partial curve, poor fit]",
COc1cccc2cc(C(=O)OC(C)C(=O)c3ccc(C)cc3)c(=O)oc12 (stereo unspecified),"inconclusive: 18.5 µM [inhibitor, partial curve, poor fit]",

# Source: PubChem BioAssay AID504834 (National Center for Advancing Translational Sciences (NCATS), 2011)
